# Laboratory results reported in patent US20060073528A1, “Measurement methods” (priority 2004, published 2006).
# Several values for one entry are separate records, joined by “and”; a condition that tells them apart may be missing. Equal values may be shown once. Read-outs that look alike come from different tables or passages of the source.
# Key:
# [1] = Effect of extraction solvent for sample preparation on recovery; standards crossover study (Hisep RP-HPLC)
# [2] = Hisep RP-HPLC quantitation of DM1 monomer, DM1 dimer, DM1-TPA adduct, PPA and mercaptopyridine (specificity, precision, linearity, spike recovery, LOD, LOQ, range)
# [3] = limit of detection, standard solutions, triplicates
# [4] = limit of quantitation, standard solutions, triplicates
smiles,measurement,setting,value
COc1cc2cc(c1Cl)N(C)C(=O)C[C@H](OC(=O)[C@H](C)N(C)C(=O)CCS)[C@]1(C)O[C@H]1[C@H](C)[C@@H]1C[C@@](O)(NC(=O)O1)[C@H](OC)/C=C/C=C(\C)C2 [DM1 monomer],% diff original vs new standard,[1]; 0.5 μM,1.7%
same,"New standard, Avg (area)",[1]; 0.5 μM,20077
same,"New standard, Injection (area)",[1]; 0.5 μM,20538 and 19616
same,"Original standard, Avg (area)",[1]; 0.5 μM,19513
same,"Original standard, Injection (area)",[1]; 0.5 μM,19627 and 19399
same,% diff original vs new standard,[1]; 1.0 μM,30.4%
same,"New standard, Avg (area)",[1]; 1.0 μM,52266
same,"New standard, Injection (area)",[1]; 1.0 μM,52407 and 52125
same,"Original standard, Avg (area)",[1]; 1.0 μM,40016
same,"Original standard, Injection (area)",[1]; 1.0 μM,39984 and 40048
same,% diff original vs new standard,[1]; 5.0 μM,14.1%
same,"New standard, Avg (area)",[1]; 5.0 μM,255399
same,"New standard, Injection (area)",[1]; 5.0 μM,255949 and 254849
same,"Original standard, Avg (area)",[1]; 5.0 μM,223640
same,"Original standard, Injection (area)",[1]; 5.0 μM,223654 and 223627
same,% diff original vs new standard,[1]; 10.0 μM,12.4%
same,"New standard, Avg (area)",[1]; 10.0 μM,519846
same,"New standard, Injection (area)",[1]; 10.0 μM,521439 and 518253
same,"Original standard, Avg (area)",[1]; 10.0 μM,461739
same,"Original standard, Injection (area)",[1]; 10.0 μM,461364 and 462114
same,LOD - standard solution,[2]; [3],0.025 µM
same,LOQ - standard solution,[2]; [4],0.125 µM
"COc1cc2cc(c1Cl)N(C)C(=O)CC(OC(=O)C(C)N(C)CC(=O)CCSSC(C)CCC(=O)O)C1(C)OC1C(C)C1CC(O)(NC(=O)O1)C(OC)C=CC=C(C)C2 (stereo not shown) [DM1-TPA adduct, DM1-thiopentanoic acid adduct]",LOD - standard solution,[2],0.015 µM
same,LOQ - standard solution,[2],0.062 µM
"CC(CCC(=O)O)SSc1ccccn1 (stereo not shown) [PPA, 4-(2-pyridyldithio) pentanoic acid]",LOD - standard solution,[2]; [3],0.155 µM
same,LOQ - standard solution,[2]; [4],0.312 µM
S=c1cccc[nH]1 [mercaptopyridine],LOD - standard solution,[2]; [3],0.075 µM
same,LOQ - standard solution,[2]; [4],0.15 µM
